For some assays here: At least one structure is not confirmed: it was looked up by name or label, or the drawing left a doubt. Some entries share one result that the patent states for a list of compounds. Residues, ends and D or L forms follow the SMILES beside them.
What was measured:
Fos = molecular target: T1, Fos (Homo sapiens, UniProt P01100, A167K/D174T/K188A/T181D); test: Affinity of metallopeptide for Fos; format: binding
T1 sequence (P01100 162-193 A167K/D174T/T181D/K188A limits assumed): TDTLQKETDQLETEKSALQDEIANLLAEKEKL

Sequences of proteins named here, by UniProt entry; tags and fusion partners are left off. A change or cut given only in a name is not applied to a line headed by its entry.
UniProt P01100: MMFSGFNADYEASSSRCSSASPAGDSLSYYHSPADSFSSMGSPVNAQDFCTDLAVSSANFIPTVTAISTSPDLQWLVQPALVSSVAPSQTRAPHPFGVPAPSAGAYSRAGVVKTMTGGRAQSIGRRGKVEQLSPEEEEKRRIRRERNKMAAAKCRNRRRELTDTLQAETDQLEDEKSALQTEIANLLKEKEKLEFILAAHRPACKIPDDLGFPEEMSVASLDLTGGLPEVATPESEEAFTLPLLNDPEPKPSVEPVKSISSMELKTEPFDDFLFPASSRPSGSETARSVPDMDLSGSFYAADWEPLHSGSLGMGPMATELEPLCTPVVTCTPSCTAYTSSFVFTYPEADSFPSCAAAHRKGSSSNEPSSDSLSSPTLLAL

K3a,eRh2 = test: Covalent modification of E3gX peptides with diazo reagent 1 catalysed by K3a,eRh2; format: biochemical; conditions: metallopeptide catalyst K3a,eRh2 and diazo reagent 1
Procedure: Binding the dirhodium center at positions a and e ensures that the metal will be held proximal to the coil-coil interface, and the a, e spacing serves to stabilize the necessary helical structure.
Covalent modification of variable residue g was then examined.
Relative modification rates (krel) were based on conversion at 1 hour, which corrects for catalyst loading and assumes first-order catalysis.

SMILES | Kd (Fos) [µM] | conversion within 24 h (K3a,eRh2) [%]
CC[C@H](C)[C@H](NC(=O)[C@H](CCC(N)=O)NC(=O)[C@H](CCC(N)=O)NC(=O)[C@H](CCCNC(=N)N)NC(=O)[C@H](CC(C)C)NC(=O)[C@H](CO)NC(=O)[C@H](CC(N)=O)NC(=O)[C@H](C)NC(=O)[C@@H](NC(=O)[C@H](CO)NC(=O)[C@H](C)NC(=O)[C@H](CCC(=O)O)NC(=O)[C@H](CO)NC(=O)[C@H](CO)NC(=O)[C@@H](NC(=O)[C@H](CCC(=O)O)NC(=O)[C@H](C)NC(=O)[C@H](CCCCN)NC(=O)[C@H](CC(C)C)NC(=O)[C@@H](NC(=O)[C@H](CCCCN)NC(=O)[C@@H](NC(=O)[C@H](CCCNC(=N)N)NC(=O)[C@H](CCC(N)=O)NC(=O)[C@H](CCC(N)=O)NC(=O)[C@H](CC(C)C)NC(=O)[C@H](CCC(N)=O)NC(=O)[C@H](C)NC(=O)[C@H](C)NC(C)=O)C(C)C)[C@@H](C)O)[C@@H](C)CC)[C@@H](C)O)C(=O)N[C@@H](C)C(=O)N[C@@H](CCC(N)=O)C(=O)N[C@@H](CC(C)C)C(N)=O [Jun(Rh2)] (Ac-AAQLQQRVKTLKAEISSEASTANSLRQQIAQL-NH2; N-terminus and C-terminus assumed) | ≥ 100 | –
N[C@@H](CS)C(=O)O [Cys] | – | > 65
